Results reported in article PMC10556562.

Sequences of proteins named here, by UniProt entry; tags and fusion partners are left off.
UniProt Q95X44: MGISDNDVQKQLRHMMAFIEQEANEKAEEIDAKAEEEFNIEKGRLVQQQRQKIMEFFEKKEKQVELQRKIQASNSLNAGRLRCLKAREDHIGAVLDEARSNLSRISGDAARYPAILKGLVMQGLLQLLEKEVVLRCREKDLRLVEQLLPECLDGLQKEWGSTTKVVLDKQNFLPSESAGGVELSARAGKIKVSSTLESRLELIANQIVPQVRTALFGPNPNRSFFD
UniProt Q9XW92: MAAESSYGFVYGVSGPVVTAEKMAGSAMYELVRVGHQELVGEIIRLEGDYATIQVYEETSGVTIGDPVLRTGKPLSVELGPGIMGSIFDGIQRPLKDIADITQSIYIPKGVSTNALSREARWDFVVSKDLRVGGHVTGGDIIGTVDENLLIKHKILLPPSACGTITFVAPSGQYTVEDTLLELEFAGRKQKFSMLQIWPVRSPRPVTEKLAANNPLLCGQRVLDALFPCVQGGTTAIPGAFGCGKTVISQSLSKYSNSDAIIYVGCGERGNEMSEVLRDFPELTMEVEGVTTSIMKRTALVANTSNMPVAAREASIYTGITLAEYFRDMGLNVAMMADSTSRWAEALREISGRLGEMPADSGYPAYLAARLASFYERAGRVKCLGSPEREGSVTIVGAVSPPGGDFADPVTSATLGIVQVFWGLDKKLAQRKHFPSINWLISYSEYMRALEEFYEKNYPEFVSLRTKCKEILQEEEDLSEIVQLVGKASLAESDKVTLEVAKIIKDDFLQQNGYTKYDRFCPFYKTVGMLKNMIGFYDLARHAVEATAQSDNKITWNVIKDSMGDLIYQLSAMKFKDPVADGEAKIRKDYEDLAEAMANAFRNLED
UniProt Q19626: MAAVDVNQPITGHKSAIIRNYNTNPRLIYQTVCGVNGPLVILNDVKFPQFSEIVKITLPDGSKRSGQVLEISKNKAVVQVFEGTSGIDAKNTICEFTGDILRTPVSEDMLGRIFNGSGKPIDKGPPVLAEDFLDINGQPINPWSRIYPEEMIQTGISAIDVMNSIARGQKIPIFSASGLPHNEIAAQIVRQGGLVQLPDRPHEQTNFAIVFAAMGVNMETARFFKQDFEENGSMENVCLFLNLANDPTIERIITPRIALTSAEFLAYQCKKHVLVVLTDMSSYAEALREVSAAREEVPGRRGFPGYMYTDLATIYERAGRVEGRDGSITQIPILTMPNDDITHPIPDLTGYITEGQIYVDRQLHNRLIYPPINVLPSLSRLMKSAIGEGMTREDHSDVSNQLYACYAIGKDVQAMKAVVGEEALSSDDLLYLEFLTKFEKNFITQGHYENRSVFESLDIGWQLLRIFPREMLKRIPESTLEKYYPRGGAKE
UniProt P09446: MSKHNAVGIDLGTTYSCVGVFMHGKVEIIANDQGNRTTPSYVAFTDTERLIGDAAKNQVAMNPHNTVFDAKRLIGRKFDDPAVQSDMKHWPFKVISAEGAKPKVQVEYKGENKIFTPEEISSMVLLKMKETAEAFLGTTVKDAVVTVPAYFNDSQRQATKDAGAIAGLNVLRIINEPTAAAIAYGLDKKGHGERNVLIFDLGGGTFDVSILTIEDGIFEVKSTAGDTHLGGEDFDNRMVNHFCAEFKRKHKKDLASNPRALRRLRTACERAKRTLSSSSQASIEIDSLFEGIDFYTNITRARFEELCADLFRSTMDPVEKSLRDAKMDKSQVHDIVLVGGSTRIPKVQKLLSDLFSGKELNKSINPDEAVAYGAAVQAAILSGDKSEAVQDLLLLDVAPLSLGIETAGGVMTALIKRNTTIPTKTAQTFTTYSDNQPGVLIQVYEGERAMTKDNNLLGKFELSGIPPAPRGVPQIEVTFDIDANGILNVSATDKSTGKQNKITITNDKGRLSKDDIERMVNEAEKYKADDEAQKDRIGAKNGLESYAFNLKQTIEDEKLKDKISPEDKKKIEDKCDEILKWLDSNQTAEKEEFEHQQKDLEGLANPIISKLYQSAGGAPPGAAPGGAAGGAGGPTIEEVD

T1: mCherry-tagged C. elegans Parkin – Parkinson's Disease Related 1 (PDR-1) (C. elegans) (UniProt Q9XUS3)
T1 sequence: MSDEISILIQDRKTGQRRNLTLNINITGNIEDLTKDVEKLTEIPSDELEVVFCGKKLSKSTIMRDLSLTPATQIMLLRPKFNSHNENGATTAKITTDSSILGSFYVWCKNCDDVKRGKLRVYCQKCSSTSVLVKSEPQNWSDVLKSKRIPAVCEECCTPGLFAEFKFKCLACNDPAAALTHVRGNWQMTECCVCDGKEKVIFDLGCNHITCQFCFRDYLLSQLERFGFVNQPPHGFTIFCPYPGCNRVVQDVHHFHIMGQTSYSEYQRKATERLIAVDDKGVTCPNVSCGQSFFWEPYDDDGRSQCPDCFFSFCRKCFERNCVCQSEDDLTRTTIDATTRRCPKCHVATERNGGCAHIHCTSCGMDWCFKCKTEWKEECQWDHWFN

B1: adenosine triphosphate (ATP)-Citrate Lyase ACLY-1 (protein, UniProt P53585 1-1106)
chain: MSAKAVSELSGKEVLYKYFEPSGLLSAPHAFHVKAGENFDEIANKYEWLARDNKGVIKPDQLIKRRGKLGLVKIGTPQELKAWFEKTGDSYVRVGQTEGRLHTFIVEPFCAHTEKDEMYIAIYSERFRDVIMFYEQGGVDIGDVEEKARTVSVPVQLNENAMTPSDEELTTLLGPLKDSDIVRRFVVELYKAYKDLHFTYLEINPFVLLNNQIHVLDLAARLDETANFLCADKWKSRLTPYGGPNHVEFPAPFGRDLTSEEQYISEMDAKTGASLKLTILNRKGRVWTMVAGGGASVVFTDTVCDLGGASELANYGEYSGDPSESQTYEYAKTLLSVMTEGTPRPDGKVLIIGGSIANFTNVAKTFGGIVRAFETFVSKLKEHKVTIFVRRGGPNYQEGLRRIKDAATKLELPIHVFGPETHMTAIVGAALGVKPMPTVPTAPQTTGQFLLSPERNTGGTERAPPSPAANATPTEHPLTTAQQNKLKSFRGLFEDDTKAIIWGQQAKAIQGMLDFDYVCRRSSPSVVASTYPFTGDNKQKYYFGQKEILIPAYKSMAKAFATHPDASIMVTFASMRSVFETVLEALEFPQIKVIAIIAEGVPENQTRKLLKIAHDRGVTLVGPATVGGIKPGCFKIGNTGGMMDNILASKLYRPGSVAYVSRSGGMSNELNNIISQNTNGVYEGIAIGGDRYPGSTYTDHVIRYQNDDRVKMIVLLGEVGGVEEYKIVDLLKQKKVTKPLVAWCIGTCADHITSEVQFGHAGASANALGETAACKNAALRASGALVPESFDDLGNKIRQTYDELVSQQIIVPQPEVPPPAVPMDYAWARELGLIRKPASFMTSICDERGEELNYAGVPITKVLESDMGIGGVLGLLWFQKRLPPHANKFIEICLMLTADHGPAVSGAHNTIVCARAGKDLISSLTSGLLTIGDRFGGALDGAARQFSEAFDQGWSANQFVSEMRKKGKHIMGIGHRVKSINNPDKRVEILKRFAMDKKEFAQETPLFEYALEVEKITTAKKPNLILNVDGAIAILFVDILRHSGMFTKQEAEETIEIGSLNGLFVLGRSIGFIGHYLDQSRLKQGLYRHPWDDISYIMPESNLVKF
B2: Voltage Dependent Anion Channel VDAC-1 (protein, UniProt Q21752 1-283)
chain: MAPPTFADLGKSAKDLFNKGYNFGFLKIDSTTRAGDNKEVEFKSAASHNIGSGKLGGNLDVKYKIPQYGITLTEKWNTENQLGTVIEVNEQFGRGLKVTLDSLYAPHAGKRSGKVKLDWALPTARVTADVGVTSAPVINAAGVFSRDGWLIGAAATFDSSSNKLAATSLAFGHSTPQYTLHSFVINSTDFGASLYHKVASNVEVGTQLGWKVGGNGADYALATKYAPSRDLTVRAKVNSSSQVAVAATHSLSPALKLTLSTQFNLAANDAHKFGLGLEFDPSN
B3: 14-3-3-like protein PAR-5 (protein, UniProt P41932 1-248)
chain: MSDTVEELVQRAKLAEQAERYDDMAAAMKKVTEQGQELSNEERNLLSVAYKNVVGARRSSWRVISSIEQKTEGSEKKQQLAKEYRVKVEQELNDICQDVLKLLDEFLIVKAGAAESKVFYLKMKGDYYRYLAEVASEDRAAVVEKSQKAYQEALDIAKDKMQPTHPIRLGLALNFSVFYYEILNTPEHACQLAKQAFDDAIAELDTLNEDSYKDSTLIMQLLRDNLTLWTSDVGAEDQEQEGNQEAGN
B4: 14-3-3-like protein FTT-2 (protein, UniProt Q20655 1-248)
chain: MSDGKEELVNRAKLAEQAERYDDMAASMKKVTELGAELSNEERNLLSVAYKNVVGARRSSWRVISSIEQKTEGSEKKQQMAKEYREKVEKELRDICQDVLNLLDKFLIPKAGAAESKVFYLKMKGDYYRYLAEVASGDDRNSVVEKSQQSYQEAFDIAKDKMQPTHPIRLGLALNFSVFFYEILNAPDKACQLAKQAFDDAIAELDTLNEDSYKDSTLIMQLLRDNLTLWTSDAATDDTDANETEGGN
B5: mitochondrial Adenine Nucleotide Translocator ANT-1.1 (protein, UniProt O45865 1-300)
chain: MSKEKSFDTKKFLIDLASGGTAAAVSKTAVAPIERVKLLLQVQDASKAIAVDKRYKGIMDVLIRVPKEQGVAALWRGNLANVIRYFPTQAMNFAFKDTYKAIFLEGLDKKKDFWKFFAGNLASGGAAGATSLCFVYPLDFARTRLAADIGKANDREFKGLADCLIKIVKSDGPIGLYRGFFVSVQGIIIYRAAYFGMFDTAKMVFASDGQKLNFFAAWGIAQVVTVGSGILSYPWDTVRRRMMMQSGRKDILYKNTLDCAKKIIQNEGMSAMFKGALSNVFRGTGGALVLAIYDEIQKFL

Target: T1, mCherry-tagged C. elegans Parkin – Parkinson's Disease Related 1 (PDR-1) (C. elegans)
Assay: affinity purification with mass spectrometry; mCherry::PDR-1 precipitated with RFP-trap magnetic beads (1 h, room temperature) from whole-animal extracts sonicated in M9 buffer and precleaned on control magnetic beads; five washes with M9; eluate run on SDS-PAGE, Coomassie-stained bands digested in gel and analysed by LC-MS/MS; extracts of the parental strain dmaIs48 and of dmaIs48; rde-1(dma341)

Question: How did the binding turn out when “Vacuolar ATPase subunit VHA-8 (from UniProt Q95X44 1-226)” was run?
Answer: binds

Question: ATP synthase subunit ATP-2 was tested. Which binding did it give?
Answer: binds

Question: “Vacuolar ATPase subunit VHA-13 (from UniProt Q9XW92 1-606)” was tested. Which binding did it give?
Answer: binds

Question: With “Vacuolar ATPase subunit VHA-12 (from UniProt Q19626 1-491)” as the molecule, how does the binding read?
Answer: binds

Question: For “Heat Shock 70kDa HSP-1 (from UniProt P09446 1-640)”, which binding is on record?
Answer: binds

Question: Which binding does the source give for ATP synthase subunit ATP-1 here?
Answer: binds

Question: How did the binding turn out when B1 was run?
Answer: binds

Question: Which binding does the source give for B2 here?
Answer: binds

Question: With B3 as the molecule, how does the binding read?
Answer: binds

Question: How did the binding turn out when B4 was run?
Answer: binds

Question: For B5, which binding is on record?
Answer: binds

No constants are given. Whether binding was seen depends on the method and setting. In cells and extracts the contact can be indirect. Here binding means that the protein was enriched with, or labelled near, the bait; the list need not be complete. Where a sequence is shown, tags or fusion partners need not be part of it.
